{"source": "the supplement of paper PMC8728848", "binders": {"B1": {"name": "SynCAM (Mus musculus) (protein)", "chain": "MASAVLPSGSQCAAAAAVAAAAAPPGLRLRLLLLLLSAAALIPTGDGQNLFTKDVTVIEGEVATISCQVNKSDDSVIQLLNPNRQTIYFRDFRPLKDSRFQLLNFSSSELKVSLTNVSISDEGRYFCQLYTDPPQESYTTITVLVPPRNLMIDIQKDTAVEGEEIEVNCTAMASKPATTIRWFKGNKELKGKSEVEEWSDMYTVTSQLMLKVHKEDDGVPVICQVEHPAVTGNLQTQRYLEVQYKPQVHIQMTYPLQGLTREGDAFELTCEAIGKPQPVMVTWVRVDDEMPQHAVLSGPNLFINNLNKTDNGTYRCEASNIVGKAHSDYMLYVYDPPTTIPPP"}}, "test_in_all_cases": "glycan array binding signal (z-score within array); higher = stronger binding", "conditions_in_all_cases": "glycan notation: IUPAC condensed, linker removed", "key": {"[1]": {"molecular_target": "Fuc(a1-2)Gal(b1-4)[Fuc(a1-3)]GlcNAc(b1-2)Man(a1-3)[Fuc(a1-2)Gal(b1-4)[Fuc(a1-3)]GlcNAc(b1-2)Man(a1-6)]Man(b1-4)GlcNAc(b1-4)[Fuc(a1-6)]GlcNAc", "outline": "(§1)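 Glycan array data were curated from 3228 arrays in the Consortium for Functional Glycomics database and kept only where the protein sequence was available. Glycan names were converted to IUPAC-condensed notation, and columns mapping to the same glycan were averaged. The binding signal is a within-array Z-score, averaged across arrays of the same protein sequence at different concentrations or buffers and across linkers. Negative Z-scores can be read as non-binding.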"}, "[2]": {"molecular_target": "Fuc(a1-2)Gal(b1-4)[Fuc(a1-3)]GlcNAc(b1-2)[Fuc(a1-2)Gal(b1-4)[Fuc(a1-3)]GlcNAc(b1-4)]Man(a1-3)[Fuc(a1-2)Gal(b1-4)[Fuc(a1-3)]GlcNAc(b1-2)Man(a1-6)]Man(b1-4)GlcNAc(b1-4)GlcNAc", "outline": "as §1"}, "[3]": {"molecular_target": "Fuc(a1-2)Gal(b1-4)[Fuc(a1-3)]GlcNAc(b1-3)Gal(b1-4)[Fuc(a1-3)]GlcNAc", "outline": "as §1"}, "[4]": {"molecular_target": "Fuc(a1-2)Gal(b1-4)[Fuc(a1-3)]GlcNAc(b1-3)Gal(b1-4)[Fuc(a1-3)]GlcNAc(b1-3)Gal(b1-4)[Fuc(a1-3)]GlcNAc", "outline": "as §1"}, "[5]": {"molecular_target": "Fuc(a1-2)Gal(b1-4)[Fuc(a1-3)]GlcNAc(b1-3)GalNAc", "outline": "as §1"}, "[6]": {"molecular_target": "Fuc(a1-2)Gal(b1-4)[Fuc(a1-3)]GlcNAc(b1-3)[Neu5Ac(a2-6)Gal(b1-4)GlcNAc(b1-6)]Gal(b1-4)Glc", "outline": "as §1"}, "[7]": {"molecular_target": "Fuc(a1-2)Gal3S(b1-4)GlcNAc", "outline": "as §1"}, "[8]": {"molecular_target": "Fuc(a1-2)Gal6S(b1-3)GlcNAc", "outline": "as §1"}, "[9]": {"molecular_target": "Fuc(a1-2)Gal6S(b1-3)GlcNAc6S", "outline": "as §1"}, "[10]": {"molecular_target": "Fuc(a1-2)Gal6S(b1-4)Glc", "outline": "as §1"}, "[11]": {"molecular_target": "Fuc(a1-2)Gal6S(b1-4)Glc6S", "outline": "as §1"}, "[12]": {"molecular_target": "Fuc(a1-2)[Gal(a1-3)]Gal", "outline": "as §1"}, "[13]": {"molecular_target": "Fuc(a1-2)[Gal(a1-3)]Gal(b1-3)GalNAc", "outline": "as §1"}, "[14]": {"molecular_target": "Fuc(a1-2)[Gal(a1-3)]Gal(b1-3)GalNAc(b1-3)Gal(a1-4)Gal(b1-4)Glc", "outline": "as §1"}, "[15]": {"molecular_target": "Fuc(a1-2)[Gal(a1-3)]Gal(b1-3)GlcNAc", "outline": "as §1"}, "[16]": {"molecular_target": "Fuc(a1-2)[Gal(a1-3)]Gal(b1-3)GlcNAc(b1-2)Man(a1-3)[Fuc(a1-2)[Gal(a1-3)]Gal(b1-3)GlcNAc(b1-2)Man(a1-6)]Man(b1-4)GlcNAc(b1-4)GlcNAc", "outline": "as §1"}, "[17]": {"molecular_target": "Fuc(a1-2)[Gal(a1-3)]Gal(b1-3)GlcNAc(b1-2)Man(a1-3)[Fuc(a1-2)[Gal(a1-3)]Gal(b1-3)GlcNAc(b1-2)Man(a1-6)]Man(b1-4)GlcNAc(b1-4)[Fuc(a1-6)]GlcNAc", "outline": "as §1"}, "[18]": {"molecular_target": "Fuc(a1-2)[Gal(a1-3)]Gal(b1-3)GlcNAc(b1-3)GalNAc", "outline": "as §1"}, "[19]": {"molecular_target": "Fuc(a1-2)[Gal(a1-3)]Gal(b1-3)GlcNAc(b1-6)GalNAc", "outline": "as §1"}, "[20]": {"molecular_target": "Fuc(a1-2)[Gal(a1-3)]Gal(b1-4)Glc", "outline": "as §1"}, "[21]": {"molecular_target": "Fuc(a1-2)[Gal(a1-3)]Gal(b1-4)GlcNAc", "outline": "as §1"}, "[22]": {"molecular_target": "Fuc(a1-2)[Gal(a1-3)]Gal(b1-4)GlcNAc(b1-2)Man", "outline": "as §1"}, "[23]": {"molecular_target": "Fuc(a1-2)[Gal(a1-3)]Gal(b1-4)GlcNAc(b1-2)Man(a1-3)[Fuc(a1-2)[Gal(a1-3)]Gal(b1-4)GlcNAc(b1-2)Man(a1-6)]Man(b1-4)GlcNAc(b1-4)GlcNAc", "outline": "as §1"}, "[24]": {"molecular_target": "Fuc(a1-2)[Gal(a1-3)]Gal(b1-4)GlcNAc(b1-2)Man(a1-3)[Fuc(a1-2)[Gal(a1-3)]Gal(b1-4)GlcNAc(b1-2)Man(a1-6)]Man(b1-4)GlcNAc(b1-4)[Fuc(a1-6)]GlcNAc", "outline": "as §1"}, "[25]": {"molecular_target": "Fuc(a1-2)[Gal(a1-3)]Gal(b1-4)GlcNAc(b1-3)GalNAc", "outline": "as §1"}, "[26]": {"molecular_target": "Fuc(a1-2)[Gal(a1-3)]Gal(b1-4)GlcNAc(b1-3)[Fuc(a1-2)[Gal(a1-3)]Gal(b1-4)GlcNAc(b1-6)]GalNAc", "outline": "as §1"}, "[27]": {"molecular_target": "Fuc(a1-2)[Gal(a1-3)]Gal(b1-4)GlcNAc(b1-6)GalNAc", "outline": "as §1"}, "[28]": {"molecular_target": "Fuc(a1-2)[Gal(a1-3)]Gal(b1-4)[Fuc(a1-3)]Glc", "outline": "as §1"}, "[29]": {"molecular_target": "Fuc(a1-2)[Gal(a1-3)]Gal(b1-4)[Fuc(a1-3)]GlcNAc", "outline": "as §1"}, "[30]": {"molecular_target": "Fuc(a1-2)[Gal(a1-3)]Gal(b1-4)[Fuc(a1-3)]GlcNAc(b1-3)GalNAc", "outline": "as §1"}, "[31]": {"molecular_target": "Fuc(a1-2)[Gal(a1-4)]Gal(b1-4)GlcNAc", "outline": "as §1"}, "[32]": {"molecular_target": "Fuc(a1-2)[GalNAc(a1-3)]Gal", "outline": "as §1"}, "[33]": {"molecular_target": "Fuc(a1-2)[GalNAc(a1-3)]Gal(b1-3)GalNAc(a1-3)[Fuc(a1-2)]Gal(b1-4)GlcNAc", "outline": "as §1"}, "[34]": {"molecular_target": "Fuc(a1-2)[GalNAc(a1-3)]Gal(b1-3)GalNAc(b1-3)Gal(a1-4)Gal(b1-4)Glc", "outline": "as §1"}, "[35]": {"molecular_target": "Fuc(a1-2)[GalNAc(a1-3)]Gal(b1-3)GlcNAc", "outline": "as §1"}, "[36]": {"molecular_target": "Fuc(a1-2)[GalNAc(a1-3)]Gal(b1-3)GlcNAc(b1-2)Man(a1-3)[Fuc(a1-2)[GalNAc(a1-3)]Gal(b1-3)GlcNAc(b1-2)Man(a1-6)]Man(b1-4)GlcNAc(b1-4)GlcNAc", "outline": "as §1"}, "[37]": {"molecular_target": "Fuc(a1-2)[GalNAc(a1-3)]Gal(b1-3)GlcNAc(b1-2)Man(a1-3)[Fuc(a1-2)[GalNAc(a1-3)]Gal(b1-3)GlcNAc(b1-2)Man(a1-6)]Man(b1-4)GlcNAc(b1-4)[Fuc(a1-6)]GlcNAc", "outline": "as §1"}, "[38]": {"molecular_target": "Fuc(a1-2)[GalNAc(a1-3)]Gal(b1-3)GlcNAc(b1-3)GalNAc", "outline": "as §1"}}, "note": "Some of the results follow.", "data": [{"binder": "B1", "values": [{"measurement": "glycan array binding signal (z-score)", "setting": "[1]", "value": 0.425}, {"measurement": "glycan array binding signal (z-score)", "setting": "[2]", "value": 0.808}, {"measurement": "glycan array binding signal (z-score)", "setting": "[3]", "value": -0.507}, {"measurement": "glycan array binding signal (z-score)", "setting": "[4]", "value": 0.498}, {"measurement": "glycan array binding signal (z-score)", "setting": "[5]", "value": 0.446}, {"measurement": "glycan array binding signal (z-score)", "setting": "[6]", "value": -1.52}, {"measurement": "glycan array binding signal (z-score)", "setting": "[7]", "value": -1.04}, {"measurement": "glycan array binding signal (z-score)", "setting": "[8]", "value": 0.405}, {"measurement": "glycan array binding signal (z-score)", "setting": "[9]", "value": 0.177}, {"measurement": "glycan array binding signal (z-score)", "setting": "[10]", "value": -0.473}, {"measurement": "glycan array binding signal (z-score)", "setting": "[11]", "value": -0.488}, {"measurement": "glycan array binding signal (z-score)", "setting": "[12]", "value": 0.589}, {"measurement": "glycan array binding signal (z-score)", "setting": "[13]", "value": 0.091}, {"measurement": "glycan array binding signal (z-score)", "setting": "[14]", "value": -0.669}, {"measurement": "glycan array binding signal (z-score)", "setting": "[15]", "value": 0.096}, {"measurement": "glycan array binding signal (z-score)", "setting": "[16]", "value": -0.264}, {"measurement": "glycan array binding signal (z-score)", "setting": "[17]", "value": -0.761}, {"measurement": "glycan array binding signal (z-score)", "setting": "[18]", "value": 0.031}, {"measurement": "glycan array binding signal (z-score)", "setting": "[19]", "value": -1.4}, {"measurement": "glycan array binding signal (z-score)", "setting": "[20]", "value": -0.671}, {"measurement": "glycan array binding signal (z-score)", "setting": "[21]", "value": -1.34}, {"measurement": "glycan array binding signal (z-score)", "setting": "[22]", "value": 0.739}, {"measurement": "glycan array binding signal (z-score)", "setting": "[23]", "value": 0.729}, {"measurement": "glycan array binding signal (z-score)", "setting": "[24]", "value": -0.402}, {"measurement": "glycan array binding signal (z-score)", "setting": "[25]", "value": -0.463}, {"measurement": "glycan array binding signal (z-score)", "setting": "[26]", "value": -0.161}, {"measurement": "glycan array binding signal (z-score)", "setting": "[27]", "value": -0.006}, {"measurement": "glycan array binding signal (z-score)", "setting": "[28]", "value": 0.197}, {"measurement": "glycan array binding signal (z-score)", "setting": "[29]", "value": 0.293}, {"measurement": "glycan array binding signal (z-score)", "setting": "[30]", "value": -0.466}, {"measurement": "glycan array binding signal (z-score)", "setting": "[31]", "value": 0.231}, {"measurement": "glycan array binding signal (z-score)", "setting": "[32]", "value": 0.275}, {"measurement": "glycan array binding signal (z-score)", "setting": "[33]", "value": -0.208}, {"measurement": "glycan array binding signal (z-score)", "setting": "[34]", "value": 0.235}, {"measurement": "glycan array binding signal (z-score)", "setting": "[35]", "value": -0.544}, {"measurement": "glycan array binding signal (z-score)", "setting": "[36]", "value": -0.574}, {"measurement": "glycan array binding signal (z-score)", "setting": "[37]", "value": -0.627}, {"measurement": "glycan array binding signal (z-score)", "setting": "[38]", "value": 0.487}]}]}
